Hit rate of the full screen: of about 140,000 compounds, about 4,300 (3.1%) were called active. This list was built around the results that the source calls inconclusive (neither active nor inactive); the mix of calls is not that of the screen.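 How the source made its calls: active means readout at or below -70, meaning at least 70% loss of cells showing the perinucleolar compartment, a nuclear body marking cancer cells; inconclusive means readout between -30 and a set limit; inactive means the rest.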
Experiment: High Content Assay for Compounds that inhibit the Assembly of the Perinucleolar Compartment;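 further: plate controls were DMSO wells for no effect and camptothecin positive control wells for full effect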
Conditions: PC3M PTB-GFP, PNC prevalence imaging, 16 h; at 10 µM; active compounds read low
Outline: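 Read-out is percentage of cells bearing a perinucleolar compartment, from automated 20x imaging of fixed, Hoechst-stained PC3M PTB-GFP cells. Cells were seeded 4 h, then exposed 16 h to compound (23 nl of library stock) in duplicate plates.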

Compound | activity change (PNC), negative = inhibition
CCCCC1CC(C)(C(=O)CSc2nc3ccccc3s2)OC1=O (configuration not stated) | inconclusive: -44.8%
CCCOC(=O)C1C2C=C[C@]3(CN(CCc4ccccc4)C(=O)[C@H]13)O2 (some centres not stated) | inconclusive: -57%
CCCCNC(=O)C1CCCN1C(=O)NC1CCCCC1 (configuration not stated) | active: -100%
CN(C)CCC(=O)c1ccc(Cl)cc1 | inconclusive: -32.2%
COc1cc2c(cc1NC(=O)CSc1nccn1C)oc1ccccc12 | inconclusive: -41.1%
CCOc1ccc(N(C(=O)Cn2nnc3ccccc32)C(C(=O)NC(C)(C)CC)c2cccn2C)cc1 (configuration not stated) | inactive: 25.5%
Cc1ccccc1NC1=C(Cl)C(=O)OC1NC(=O)c1ccccc1 (configuration not stated) | inconclusive: -30.6%
CSc1nc(-c2ccccc2)cc(C(F)(F)F)c1C#N | inconclusive: -50%
O=C(O)c1nn(-c2ccccc2)c(-c2ccccc2)c1C(=O)c1ccccc1 | inconclusive: -54.4%
Cc1nc(SC2CC(=O)N(c3ccccc3)C2=O)nc2c1CCCC2 (configuration not stated) | inconclusive: -46.2%
COC(=O)c1ccc(N2CCN(S(=O)(=O)c3c(C)cc(C)cc3C)CC2)c([N+](=O)[O-])c1 | inconclusive: -45%
COc1ccccc1C1SCCN1C(=O)c1ccc([N+](=O)[O-])cc1 (configuration not stated) | inactive: 15%
Cc1ccc(CN2C(=O)c3ccccc3C2C(=O)NCc2cccnc2)cc1 (configuration not stated) | inactive: 25.2%
CC(=O)Nc1ccc(S(=O)(=O)Nc2ccc(Cl)nn2)cc1 | inactive: 15.5%
Cc1cc(C)n(S(=O)(=O)c2cc(C)c(C)cc2C)n1 | inconclusive: -34.7%
CCOc1ccccc1CN1C(=O)NC(C)(c2ccccc2)C1=O (configuration not stated) | inactive: -18.6%
O=c1cc(N2CCN(c3ccc(F)cc3)CC2)[nH]c(=O)n1C1CCCCC1 | inactive: 45.6%
CCS(=O)(=O)c1nc2ccccc2n1Cc1ccccc1Cl | inconclusive: -43.8%
CSc1ccc(S(=O)(=O)NCc2ccc(Cl)cc2)cc1 | inconclusive: -75.1%
CC(=O)c1sc(NC(=O)c2ccc(C)cc2)nc1C | inconclusive: -59%
CC1(C)Oc2ccc3ccc(=O)oc3c2/C(=C/Nc2ccccn2)C1=O | inconclusive: -32.9%
COc1ccc(NC(=O)CC2C(=O)N(C)C(=S)N2Cc2ccco2)cc1 (configuration not stated) | inactive: 7.39%
O=C(N/N=C1\CCCc2ccccc21)C(O)c1ccccc1 (configuration not stated) | inactive: -8.11%

Compound | activity change (PNC), negative = inhibition
Oc1ccc(/C=N/NC(=S)Nc2cccnc2)cc1O | inactive: -7.35%
Cc1ccc(C(=O)c2ccccc2C(=O)O)c(O)c1 | inconclusive: -72.4%
COC(=O)c1cc2ccccc2oc1=O | inconclusive: -31.4%
O=C(Nc1cn(-c2ccccc2)nc1-c1cccs1)c1ccco1 | inconclusive: -62.1%
CCCn1c(SC2C(=O)CC(C)(C)CC2=O)nc2c1c(=O)n(C)c(=O)n2C | inconclusive: -31.9%
CC(=O)N1CCN(C(=S)c2ccc(-c3ccc(Cl)cc3)o2)CC1 | inconclusive: -30.4%
C/C(=N\Nc1nc2ccccc2s1)c1ccc2c(c1)OCO2 | inactive: 30.4%
Cc1occc1-c1nnc(SCC(=O)NCc2ccco2)n1CC(C)C | inactive: 1.27%
COc1ccc(Br)cc1CNC(=O)Nc1cccs1 | inconclusive: -37.9%
O=S(=O)(/C(=C/c1ccc(C(F)(F)F)cc1)c1nc2ccccc2[nH]1)c1ccccc1 | inconclusive: -60.8%
CCOC(=O)c1nn(-c2ccc(C)cc2)c(C)c1C(C)=O | inconclusive: -37%
COc1ccccc1C(=O)N1CCN(c2cccc(Cl)c2)CC1 | inconclusive: -36.9%
CC1(C)C2CCC1(C)C(OC(=O)CCn1ccnc1)C2 (configuration not stated) | inconclusive: -57.1%
C=CCn1c(SCC(=O)c2[nH]c(C)c(C(=O)OCC)c2C)nc2scc(-c3ccccc3)c2c1=O | inconclusive: -61.7%
CCOC(=O)C(=Cc1ccc(OCc2ccc([N+](=O)[O-])cc2)c(OC)c1)C(=O)OCC | inconclusive: -55.6%
Cc1cccn2c(=O)c(/C=C(\C#N)C(=O)NC3CCS(=O)(=O)C3)c(N3CCC(C)CC3)nc12 (configuration not stated) | inactive: 16.7%
COc1ccc(C(=O)SC2=NCCS2)cc1 | inconclusive: -43.9%
Cc1cc(C)cc(OCC(=O)OC/C(O)=C(\C#N)c2nc3ccccc3[nH]2)c1 | inactive: 73.4%
COc1ccccc1OCC(=O)Nc1ccccn1 | inconclusive: -62.4%
CC1CC(C(F)(F)F)n2ncnc2N1 (configuration not stated) | inconclusive: -36%
CCC(=O)Nc1cccc(NC(=O)c2ccc(C)c([N+](=O)[O-])c2)c1 | inconclusive: -53.4%
CC1(C)CC(=O)C=C(Nc2ccccn2)C1 | inconclusive: -40.5%
COc1ccc(/C(C)=N/NC(=O)Cc2c(C)nc(C)[nH]c2=O)cc1 | inconclusive: -36.2%

Compound | activity change (PNC), negative = inhibition
CCOc1cc(C(=O)Nc2ccc3c(c2)OCO3)ccc1OC(F)F | inconclusive: -30.2%
O=C(CC1Sc2ccccc2NC1=O)Nc1ccccc1[N+](=O)[O-] (configuration not stated) | inconclusive: -34.7%
CC(C)CC(=O)OCC(=O)Nc1ccccc1Sc1ccccc1 | inconclusive: -46.2%
Cc1noc(C)c1C(=O)Nc1sc(C)c(-c2ccccc2)c1C#N | inconclusive: -55.8%
COc1cc(-c2nnc(SCC(=O)N3CCCC3)o2)cc(OC)c1OC | inconclusive: -58.6%
CNc1nc(SCc2ccccc2Cl)nc2c1CCCC2 | inactive: 17.6%
Cc1ccc(C(=O)NCc2nnc(SCC(=O)Nc3sc4c(c3C#N)CCCC4)n2C)cc1 | inactive: -6.36%
COc1nc2c(C)cccc2cc1-c1noc(-c2ccco2)n1 | inconclusive: -52.5%
CCOC(=O)CN1C(=O)S/C(=C/c2ccc(N3CCCCC3)o2)C1=O | inconclusive: -34.7%
O=C1C2C3C=CC(CO)(O3)C2C(=O)N1c1ccc(-c2ccccc2)cc1 (configuration not stated) | inconclusive: -38%
Cc1ccc(-n2ncc3c(NCc4ccc5c(c4)OCO5)ncnc32)c(C)c1 | inactive: -25.6%
O=C(c1ccccc1C(F)(F)F)N1CCN(S(=O)(=O)c2ccccc2)CC1 | inconclusive: -59.2%
Cc1ccc(N(C(C)C(=O)N2CCCCC2)S(C)(=O)=O)cc1C (configuration not stated) | inconclusive: -39.3%
CCCCC#Cc1ccccc1CC(=O)Nc1ccccc1 | active: -119%
CSc1nc2sc3c(c2c(=O)n1C)CCCC3 | active: -87.4%
O=C(OCc1cc(=O)n2c(n1)sc1ccccc12)c1cccc(O)c1 | inconclusive: -45.6%
Cc1ccc(S(=O)(=O)NC2c3cccc4cccc(c34)C2Sc2ncccn2)cc1 (configuration not stated) | inconclusive: -56.6%
CCN(CC)c1ccc(C=C(c2nnnn2-c2ccccc2)c2nnnn2-c2ccccc2)cc1 | inactive: -7.79%
Cc1ccc(C2=NC(C(F)(F)F)(C(F)(F)F)c3c(n(-c4ccc(F)cc4)c(=O)[nH]c3=O)N2)cc1 | inactive: 25.3%
C/C(=N\NC(=O)CC#N)c1cc2ccccc2oc1=O | inconclusive: -66.4%
COCCn1c(SCC(=O)Nc2ccc3c(c2)CCC3)nc2ccccc2c1=O | inconclusive: -70.5%
Cc1nc2ccc(Cl)cc2c(-c2ccccc2F)c1CC(=O)O | inactive: 48.1%
CCN(CC)c1ccc(C2C3CCCCC3(O)CCN2C(=O)c2cccs2)cc1 (configuration not stated) | inconclusive: -41.2%

Of the compounds above, these have a furan ring, fused or not.
Compound | activity change (PNC), negative = inhibition
COc1cc2c(cc1NC(=O)CSc1nccn1C)oc1ccccc12 | inconclusive: -41.1%
COc1ccc(NC(=O)CC2C(=O)N(C)C(=S)N2Cc2ccco2)cc1 (configuration not stated) | inactive: 7.39%
O=C(Nc1cn(-c2ccccc2)nc1-c1cccs1)c1ccco1 | inconclusive: -62.1%
CC(=O)N1CCN(C(=S)c2ccc(-c3ccc(Cl)cc3)o2)CC1 | inconclusive: -30.4%
Cc1occc1-c1nnc(SCC(=O)NCc2ccco2)n1CC(C)C | inactive: 1.27%
COc1nc2c(C)cccc2cc1-c1noc(-c2ccco2)n1 | inconclusive: -52.5%
CCOC(=O)CN1C(=O)S/C(=C/c2ccc(N3CCCCC3)o2)C1=O | inconclusive: -34.7%

More compounds follow.

Compound | activity change (PNC), negative = inhibition
Cc1cc(S(=O)(=O)NC2CCCC2)ccc1F | inactive: 24.9%
CC(=O)Nc1cnc2ccccc2n1 | inconclusive: -45.2%
COC(=O)C(C)(C)ONC(=O)Nc1ccc(C)cc1 | inactive: 10.8%
Cc1ccc(NC(=O)CN(C)S(=O)(=O)c2cccc3nsnc23)cc1 | inconclusive: -39%
c1cnc(N2CCN(c3nc4ccccc4n4cnnc34)CC2)nc1 | inconclusive: -79.1%
COc1ccc(OCC(O)Cn2c(Nc3ccccc3)nc3c2c(=O)n(C)c(=O)n3C)cc1 (configuration not stated) | active: -82.7%
Cn1cnnc1SCCC(=O)Nc1ccccc1 | inactive: 27.7%
O=C(CC1CCCC1)Nc1ccc2c(c1)CCC2 | inactive: 62.8%
Cc1ccc(NCN2C(=O)C3C4C=CC(C4)C3C2=O)cc1 (configuration not stated) | inactive: 18.9%
CC(C)CC(C(=O)O)N1C(=O)C2C3CC(C2C1=O)C1C(c2ccccc2)c2sc(=O)[nH]c2SC31 (configuration not stated) | inconclusive: -40.3%
CC(=O)N1N=C(c2ccncc2)OC12CCCCC2 | inconclusive: -57%
Cc1nnc(C)n1/N=C/c1cc(Br)ccc1O | inconclusive: -31.2%
COC(=O)c1cccc(COC(=O)c2ccc(N(C)C)cc2)c1 | inconclusive: -35%
COCCNC(=O)C(c1ccccc1)N(C(=O)Cn1nnc2ccccc21)c1cccnc1 (configuration not stated) | inconclusive: -41.8%
COc1ccc(-c2nnc(SCC#CCO)o2)cc1OC | inconclusive: -57.2%
COC(=O)CN1C(=O)S/C(=C/c2cc(C)n(C)c2C)C1=O | inconclusive: -42.1%
Cc1cc2oc(=O)cc(CN3CCN(Cc4ccccc4)CC3)c2cc1Cl | inconclusive: -35.3%
O=C(N/N=C/c1nn(-c2ccccc2)cc1-c1ccccc1)c1ccncc1 | inactive: 44.8%
COc1ccc(NC(=S)Nc2ccc(Oc3ccccc3)cc2)cc1 | inactive: 46.1%
O=c1c2ccccc2nc(-c2ccccc2)n1Cc1ccc(Cl)cc1 | inactive: -0.27%
C[C@@H]1NC(=O)[C@H](CCC(N)=O)NC(=O)c2cc([N+](=O)[O-])cc(I)c2NCC[C@@H](C(N)=O)NC1=O | inactive: 30.2%
CCCCNC(=O)CN1C(=O)C(CC)Oc2ccc(Cl)cc21 (configuration not stated) | inconclusive: -39.6%
O=C(c1cc(Cl)ccc1[N+](=O)[O-])N1CCc2ccccc2C1 | inconclusive: -37.2%

— PubChem BioAssay AID2417 (National Center for Advancing Translational Sciences (NCATS), 2010)
